In patent publication US20250340653A1:
These are yes or no findings as the source states them, for the method shown. Some results given as binding are weak or reduced against the parent protein; the word gives no strength.

How the values were obtained:
[1] = target: Canine IL-31RA ECD-10His (canine); assay: ELISA on coated canine IL-31RA (FIG. 7B)
[2] = target: Canine IL-31RA ECD-10His (canine); assay: ELISA on coated canine IL-31RA, 200 ng/well

B1: c100H8VH7VL4 (antibody, V domains shown)
VH: EVQLVQSGAEVKKPGASVKVSCKASGYTFTDYNMDWVRQAPGAGLDWIGHINPNNGGILYNQKFKGKATLTADTSTSTAYMELSSLRAGDIAVYYCARWAPLVRQPYWYFDVWGQGTLVTVSS
VL: DIVMTQTPLSLSVSPGETASISCKASQDINSYLNWFRQKPGQSPQLLIYRADRLVDGVPDRFSGSGSGTDFTLRISTVEADDTGVYYCLQYDEFPLTFGAGTKVELKR
[1]
  binding: binds
[2]
  binding: binds
